Results taken from PubChem BioAssay (NCATS).
Inconclusive results, whose numbers are uncertain, are shown with a selection of clear calls. A potency beside an inconclusive call is a rough fit, not a confirmed value. Calls of active or inactive are those of the source. Calls follow the shape of the dose curve; as a rule, active = well fitted curve in the direction sought with a large enough effect; inconclusive = small, poorly fitted or top-dose-only effect, or another doubt; inactive = no such curve, though single readings can be large; an effect the other way counts as inactive or inconclusive.

Chains of the proteins cited; added tags and fusions are not shown.
UniProt P11712, whole entry, looked up: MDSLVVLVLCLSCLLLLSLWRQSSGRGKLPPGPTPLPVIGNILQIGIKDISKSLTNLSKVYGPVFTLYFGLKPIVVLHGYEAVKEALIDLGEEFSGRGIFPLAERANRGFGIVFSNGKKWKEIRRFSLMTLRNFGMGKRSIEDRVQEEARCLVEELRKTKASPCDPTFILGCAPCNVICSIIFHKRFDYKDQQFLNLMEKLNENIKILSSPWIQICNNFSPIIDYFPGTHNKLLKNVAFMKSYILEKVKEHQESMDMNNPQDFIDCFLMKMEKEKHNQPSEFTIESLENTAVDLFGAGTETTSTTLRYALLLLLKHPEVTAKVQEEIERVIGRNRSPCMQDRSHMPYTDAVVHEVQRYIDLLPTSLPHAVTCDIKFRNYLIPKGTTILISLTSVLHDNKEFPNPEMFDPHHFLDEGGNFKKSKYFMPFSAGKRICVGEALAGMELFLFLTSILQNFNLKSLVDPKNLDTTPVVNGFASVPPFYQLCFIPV
UniProt P33261, whole entry, looked up: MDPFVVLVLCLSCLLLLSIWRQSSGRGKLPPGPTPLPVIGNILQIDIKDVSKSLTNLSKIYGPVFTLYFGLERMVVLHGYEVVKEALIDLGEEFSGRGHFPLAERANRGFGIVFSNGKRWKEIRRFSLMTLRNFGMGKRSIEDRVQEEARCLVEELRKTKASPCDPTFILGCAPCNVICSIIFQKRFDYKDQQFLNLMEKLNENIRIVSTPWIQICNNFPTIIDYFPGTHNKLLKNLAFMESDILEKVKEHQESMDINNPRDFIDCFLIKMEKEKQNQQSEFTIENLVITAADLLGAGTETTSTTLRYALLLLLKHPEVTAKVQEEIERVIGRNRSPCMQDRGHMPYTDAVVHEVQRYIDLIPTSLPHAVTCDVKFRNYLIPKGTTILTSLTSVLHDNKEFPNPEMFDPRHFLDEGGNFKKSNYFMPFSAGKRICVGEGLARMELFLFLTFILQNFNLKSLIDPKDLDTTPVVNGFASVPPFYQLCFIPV

test system: not listed separately; assay: Quantitative High-Throughput drug screen in 47 multiple myeloma cell lines against the NCATS MIPE library collection: KMS28BM_JCRB cell viability assay (AID 1919874); conditions: CellTiter-Glo ATP, 48 h; series mostly up to 45.8 µM; also: nearly all actives have a fitted effect of over 35% in size
Summary of the method: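 ATP-based CellTiter-Glo luminescence after 48 h drug exposure (37 °C, 5% CO2) of 500 myeloma cells per well. DMSO-only wells set 100% viability, media-only wells 0%; MIPE 4.0 library added by pin tool.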
Potency is read from the fitted curve at half-maximal effect.

Row | Compound | Potency
1 | COC(=O)[C@@H]1CC2=CC(=O)CC[C@]2(C)[C@@]23O[C@@H]2C[C@@]2(C)[C@H](CC[C@@]24CCC(=O)O4)[C@@H]13 | inconclusive: 18.7 µM [rising, partial curve, poor fit]
2 | O=C(O)CCC=CCC[C@@H]1[C@H](N2CCCCC2)[C@@H](O)C[C@@H]1OCc1ccc(-c2ccccc2)cc1 | inconclusive: 8.33 µM [cytotoxic, partial curve, poor fit]
3 | CS(=O)(=O)c1ccc([C@@H](O)[C@@H](CO)NC(=O)C(Cl)Cl)cc1 | inconclusive: 0.935 µM [cytotoxic, full curve, poor fit]
4 | O=C(O)CCNc1cc(N2CCc3ccccc3CC2)nc(-c2ccccn2)n1 | inconclusive: 0.296 µM [cytotoxic, partial curve, poor fit]
5 | CC(C)(O)Cn1c(NC(=O)c2ccc(-c3cn[nH]c3)s2)nc2cc(CN3CCOCC3)ccc21 | active: 0.743 µM
6 | O=C(CCCCCCC(=O)Nc1ccc([C@H]2O[C@@H](CSc3nc(-c4ccccc4)c(-c4ccccc4)o3)C[C@@H](c3ccc(CO)cc3)O2)cc1)NO | active: 13.2 µM
7 | COc1ccc(-n2nc(C(N)=O)c3c2C(=O)N(c2ccc(N4CCCCC4=O)cc2)CC3)cc1 | inactive
8 | OCc1ccc(-c2nn(Cc3ccccc3)c3ccccc23)o1 | inactive

For convenience, two of the compounds above.
Row | Compound | Potency
2 | O=C(O)CCC=CCC[C@@H]1[C@H](N2CCCCC2)[C@@H](O)C[C@@H]1OCc1ccc(-c2ccccc2)cc1 | inconclusive: 8.33 µM [cytotoxic, partial curve, poor fit]
3 | CS(=O)(=O)c1ccc([C@@H](O)[C@@H](CO)NC(=O)C(Cl)Cl)cc1 | inconclusive: 0.935 µM [cytotoxic, full curve, poor fit]

target: Cytochrome P450 2C9 (Homo sapiens) (UniProt P11712); assay: qHTS for inhibitors of CYP2C9 against the NCATS DSHEA and TCM libraries (AID 1919973); conditions: recombinant CYP2C9 enzyme activity, luminescence; series mostly up to 34.1 µM
Summary of the method: (§1)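 Concentration-response screening with isoform-matched pro-luciferin substrates. The CYP reaction was initiated by NADPH regenerating solution and ran 30-45 min in darkness at room temperature.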

Row | Compound | Potency
9 | CC1=CCC(C(C)(C)O)CC1 (stereo not given) | inconclusive: 3.55 µM [inhibitor, full curve, poor fit]
10 | CC(C)=CCC[C@@](C)(O)[C@H]1CC=C(C)CC1 | inconclusive: 15.8 µM [inhibitor, partial curve]
11 | C=CCc1ccc(O)c(OC)c1 | inactive
12 | CC1=C(C/C=C(\C)CCC[C@H](C)CCC[C@H](C)CCCC(C)C)C(=O)c2ccccc2C1=O | inconclusive: 31.6 µM [inhibitor, single point]

target: Cytochrome P450 2C19 (Homo sapiens) (UniProt P33261); assay: qHTS for inhibitors of CYP2C19 against the NCATS DSHEA and TCM libraries (AID 1919974); conditions: CYP2C19 enzyme inhibition, luminescence qHTS; series mostly up to 34.1 µM;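 also: luminescence from luciferin released by CYP2C19 oxidation of a pro-luciferin substrate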
Summary of the method: as §1

Row | Compound | Potency
13 | O=C1O[C@H]([C@@H](O)CO)C(O)=C1O | inconclusive: 3.16 µM [inhibitor, full curve, poor fit]
14 | C=CCc1ccc(O)c(OC)c1 | inconclusive: 28.2 µM [inhibitor, single point]
15 | CCCCCCCC(=O)O | inactive
